Experimental data: article PMC9775322, “An Integrated Analysis of Mechanistic Insights into Biomolecular Interactions and Molecular Dynamics of Bio-Inspired Cu(II) and Zn(II) Complexes towards DNA/BSA/SARS-CoV-2 3CL^pro by Molecular Docking-Based Virtual Screening and FRET Detection” (Biomolecules, 2022)

Tested on: CT-DNA
Assay: DNA binding by cyclic voltammetry
Design: species or system calf
Settings: for Do (diffusion coefficient), Bound / E° (or) E1/2 (formal electrode potential), Bound / Ipa/Ipc, Bound / ΔEP (peak-to-peak separation), Bound: bound to CT-DNA; for ΔEP (peak-to-peak separation), Bound / ΔEP (peak-to-peak separation), Free: scan rate 100 mV s^−1; for Es° = Eb° − Ef°: shift of formal potential on DNA binding; for Do (diffusion coefficient), Free / E° (or) E1/2 (formal electrode potential), Free / Ipa/Ipc, Free / ΔEP (peak-to-peak separation), Free: without DNA
Procedure: The CV experiment was carried out for free substances at 10 µM at room temperature with a 5 mM Tris-HCl/50 mM NaCl buffer solution (pH: 7.4). While CT-DNA increases (0–10 µM) in each sample solution, shifts in potential, including variations in the anodic and cathodic peak currents, have been monitored.
2.2.7. Evaluation of DNA interaction properties using cyclic voltammetry technique The electrochemical analysis is a critical entity to examine the electron transfer reactions of the test compounds. With a scan rate of 0.1V, the CHI 620C electrochemical analyzer was utilized with a three-electrode system consisting of glassy carbon as the working electrode, Ag/AgCl as the reference electrode, and platinum wire as the counter/auxiliary electrode to monitor changes in peak current and peak potential during the interaction between test compound and DNA. The changes in peak current and peak potential further afford data on the binding constant as well as the mode of interaction for test compound –DNA adducts. In single-compartment cells of 5 –15 mL, electrochemical titrations for all test compounds were executed at 25 °C in the absence and presence of DNA. The solutions were then deoxygenated by passing them through N 2 before measurements were made. The electrochemical analysis for free compounds was executed at a 10 µM concentration in the presence of 5mM Tr is-HCl /50 mM NaCl (pH = 7.2) buffer solution. Changes in the anodic […]
and cathodic peak currents, as well as potential shifts, have been observed as CT-DNA concentrations in each solution of complexes rise from 1 to 10 µM [32].
I ) = log [DNA] + log Kb (S24)
The peak currents of the chemical in the absence and presence of deoxyribonucleic acid are designated as I0 and I, respectively.
Kb values for all samples were estimated through the linear regression plot of log (1/[DNA]) versus log (I/I0–I) by method-I. Equation (S26) was attained from equation (S25).
Cf and Cb are represented as the free substance concentration and DNA-interacted compound, respectively, and equation (S28) was obtained by comparing equations (S26) and (S27).
Ipa is denoted as the anodic peak current in amperes, n is represented as the number of electrons participating in the redox (M 1+/M2+) process (n=1), The activation coefficient (charge transfer coefficient) is shown by the symbol α. and the value is equal to 0.5, which is a typically supported approximation for numerous quasi-reversible systems.
2.3. DFT and molecular modelling studies
DFT calculations were performed to comprehend the electronic structure and reactivity of ligand (HL) and metal complexes ( 1b-2b) using the Gaussian 09 package [ 34]. Geometries were fully optimized both in the gas phase and methanol solution using B3LYP, and comparatively later with the CAM-B3LYP and M06-2X functionals. For each complex, the […]

SMILES | Do (diffusion coefficient), Bound | E° (or) E1/2 (formal electrode potential), Bound [V] | Ipa/Ipc, Bound | ΔEP (peak-to-peak separation), Bound [V] | Es° = Eb° − Ef° [V] | Do (diffusion coefficient), Free | E° (or) E1/2 (formal electrode potential), Free [V] | Ipa/Ipc, Free | ΔEP (peak-to-peak separation), Free [V]
Oc1ccccc1N=Cc1ccc(N2CCOCC2)cc1 [(HL), 2-(4-morpholinobenzylideneamino)phenol] | 2.5809 × 10^−5 cm^2 s^−1 | 0.3680 | 1.3424 | 0.8890 | 0.019 | 2.8570 × 10^−5 cm^2 s^−1 | 0.3490 | 1.4295 | 0.7420
[Cu+2].[O-]c1ccccc1N=Cc1ccc(N2CCOCC2)cc1.[O-]c1ccccc1N=Cc1ccc(N2CCOCC2)cc1.c1cnc2c(c1)ccc1cccnc12 [(1b), [Cu^II(L)2(phen)]] | 4.0688 × 10^−5 cm^2 s^−1 | 0.7317 | 0.7920 | 0.2031 | 0.0302 | 4.4035 × 10^−5 cm^2 s^−1 | 0.7015 | 0.8494 | 0.2366
[O-]c1ccccc1N=Cc1ccc(N2CCOCC2)cc1.[O-]c1ccccc1N=Cc1ccc(N2CCOCC2)cc1.[Zn+2].c1cnc2c(c1)ccc1cccnc12 [(2b), [Zn^II(L)2(phen)]] | 3.6573 × 10^−5 cm^2 s^−1 | 0.5712 | 0.6464 | 0.4350 | 0.034 | 4.0597 × 10^−5 cm^2 s^−1 | 0.5372 | 0.6072 | 0.4261
